Laboratory results as given in the supplement of paper PMC4962491.
± gives the standard deviation of the averaged measurements. This is a selection; strong and weak results do not stand in their true shares. Repeats in this data set agree poorly, so a single value says little.

Test system: FaDu
Assay: mitochondrial oxygen consumption rate normalised to cell number, Z score over the library; higher = higher oxygen consumption (negative = OCR reduction)
Conditions: treatment time 24 h; assay medium: 5 mM galactose, 5 mM pyruvate, 4 mM glutamine; 2 µM
Description: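 Primary screen: FaDu cells were incubated 24 h with Pharmakon 1600 / TDI oncology set compounds at 2 or 10 uM. Mitochondrial-specific OCR (basal minus 2 uM antimycin A) was measured on a Seahorse XF96 in assay medium with 5 mM galactose, 5 mM pyruvate and 4 mM glutamine, then corrected for Hoechst cell number and expressed as a Z score […]. Compounds that cut cell number by >66% were excluded. Two repeats.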

N#Cc1ccc2[nH]cc(CCCCN3CCN(c4ccc5oc(C(N)=O)cc5c4)CC3)c2c1
mitochondrial oxygen consumption rate normalised: 0.929 ± 0.07

CN(C)c1ccc2nc3ccc(=[N+](C)C)cc-3sc2c1
mitochondrial oxygen consumption rate normalised: -1.45 ± 0.23

COc1ccc(C2C(=O)c3ccccc3C2=O)cc1
mitochondrial oxygen consumption rate normalised: -0.43 ± 0.68

Cc1cccc(C)c1NC(=O)C1CCCCN1C (configuration not stated)
mitochondrial oxygen consumption rate normalised: -0.424 ± 0.013

COc1cc2c(cc1OC)C(=O)C(CC1CCN(Cc3ccccc3)CC1)C2 (configuration not stated)
mitochondrial oxygen consumption rate normalised: 0.235 ± 0.13

CCCCC(CC)CN1CN(CC(CC)CCCC)CC(C)(N)C1 (configuration not stated)
mitochondrial oxygen consumption rate normalised: 0.457 ± 1

CO[C@@]1(NC(=O)Cc2cccs2)C(=O)N2C(C(=O)O)=C(COC(N)=O)CS[C@@H]21
mitochondrial oxygen consumption rate normalised: 0.262 ± 0.49

CC(=O)c1ccc2c(c1)N(CCCN1CCC(CCO)CC1)c1ccccc1S2
mitochondrial oxygen consumption rate normalised: 0.864 ± 0.22

CNCC[C@H](Oc1cccc2ccccc12)c1cccs1
mitochondrial oxygen consumption rate normalised: 0.289 ± 0.45

O=C(CCCN1CCC(O)(c2ccc(Br)cc2)CC1)c1ccc(F)cc1
mitochondrial oxygen consumption rate normalised: -0.707 ± 1.1

COc1cc(Cc2cnc(N)nc2N)cc(OC)c1OC
mitochondrial oxygen consumption rate normalised: -0.0778 ± 0.14

CCN(CC)CCOC(=O)C(c1ccccc1)C1CCCCC1 (configuration not stated)
mitochondrial oxygen consumption rate normalised: -1.31 ± 0.11

COCC1=C(C(=O)OC(C)OC(=O)OC(C)C)N2C(=O)[C@@H](NC(=O)/C(=N\OC)c3csc(N)n3)[C@H]2SC1 (some centres not stated)
mitochondrial oxygen consumption rate normalised: -0.537 ± 0.33

O=NN(CCCl)C(=O)NC1CCCCC1
mitochondrial oxygen consumption rate normalised: 0.962 ± 0.12

O=NN(CCCl)C(=O)NC1CCCCC1 [Lomustine;  CCNU]
mitochondrial oxygen consumption rate normalised: 0.41 ± 0.33

COc1ccccc1O
mitochondrial oxygen consumption rate normalised: 0.278 ± 1.1

Cc1cccc(CN2CCN(C(c3ccccc3)c3ccc(Cl)cc3)CC2)c1 (configuration not stated)
mitochondrial oxygen consumption rate normalised: -0.819 ± 0.26

CCOc1ccc(S(=O)(=O)O)c2cccnc12
mitochondrial oxygen consumption rate normalised: -0.543 ± 0.32

O=C(O)CCC(=O)Nc1ccc(S(=O)(=O)Nc2nccs2)cc1
mitochondrial oxygen consumption rate normalised: 1.11 ± 0.052

COc1cnc(NS(=O)(=O)c2ccc(N)cc2)nc1
mitochondrial oxygen consumption rate normalised: 0.123 ± 0.099

CC(=O)OCC1=C(C(=O)O)N2C(=O)[C@@H](NC(=O)CSc3ccncc3)[C@H]2SC1
mitochondrial oxygen consumption rate normalised: 0.892 ± 1

O=C1OC2(c3ccc(O)cc3Oc3cc(O)ccc32)c2ccccc21
mitochondrial oxygen consumption rate normalised: -0.0426 ± 0.24

CN(C)[C@@H]1C(O)=C(C(N)=O)C(=O)[C@@]2(O)C(O)=C3C(=O)c4c(O)ccc(Cl)c4[C@@](C)(O)[C@H]3C[C@@H]12
mitochondrial oxygen consumption rate normalised: 0.246 ± 0.017

C[C@]12CC[C@@H]3c4ccc(O)cc4CC[C@H]3[C@@H]1CCC2=O
mitochondrial oxygen consumption rate normalised: 0.365 ± 0.3

H-RKDVY-OH
mitochondrial oxygen consumption rate normalised: -0.0539 ± 1.4

NC(=O)NC(=O)Cc1ccccc1
mitochondrial oxygen consumption rate normalised: 0.256 ± 0.33

COc1ccc(C(=O)c2ccc(C)cc2)c(O)c1
mitochondrial oxygen consumption rate normalised: 0.0688 ± 1.7
